Experimental findings from US4973545A, “Photographic couplers with aryloxysilyl groups” (Eastman Kodak Company, priority 1988, dated 1990) are described below.

This series can be described thus: Sensitometric testing: photographic speed. The conditions noted are these: C41 processing, step-wedge exposure.
As to `CCCCCCCCCCCCC(Oc1ccc(O[Si](C)(C)C(C)(C)C)c(C(C)(C)C)c1)C(=O)Nc1ccc(Cl)c(NC2=NN(c3c(Cl)cc(Cl)cc3Cl)C(=O)C2)c1` (stereo not drawn) [Coupler 3], the Photographic speed came out at 311. The result for `CCCCCCCCCCC(Oc1ccc(S(=O)(=O)c2ccc(O)cc2)cc1)C(=O)Nc1ccc(Cl)c(NC2=NN(c3c(Cl)cc(Cl)cc3Cl)C(=O)C2)c1` (stereo not drawn) [Coupler C-4] reads 317. The result for `CCCCCCCCCCC(Oc1ccc(S(=O)(=O)c2ccc(O[Si](C)(C)C(C)(C)C)cc2)cc1)C(=O)Nc1ccc(CCCc2n[nH]c3c(Cl)c(C)nn23)cc1` (stereo not drawn) [Coupler 1] reads 321.

`CCCCCCCCCCCCC(Oc1ccc(O)c(C(C)(C)C)c1)C(=O)Nc1ccc(Cl)c(NC2=NN(c3c(Cl)cc(Cl)cc3Cl)C(=O)C2)c1` (stereo not drawn) [Coupler C-3] yielded a Photographic speed of 316. In turn, `CCCCCCCCCCC(Oc1ccc(S(=O)(=O)c2ccc(O[Si](C)(C)C(C)(C)C)cc2)cc1)C(=O)Nc1ccc(Cl)c(NC2=NN(c3c(Cl)cc(Cl)cc3Cl)C(=O)C2)c1` (stereo not drawn) [Coupler 4] showed a Photographic speed of 317.

With `CCCCCCCCCCC(Oc1ccc(S(=O)(=O)c2ccc(O)cc2)cc1)C(=O)Nc1ccc(CCCc2n[nH]c3c(Cl)c(C)nn23)cc1` (stereo not drawn) [Coupler C-1], the Photographic speed stood at 298.
